Assay results published in patent EP0209897A2 (Merck & Co., Inc., priority 1985, dated 1987).

test: general procedure: solution-phase peptide synthesis; acyl azide (isoamyl nitrite); EDC/HBT; settings: coupling step

Substance	step yield
Methyl [N-(N-(N-BOC-2-amino-3-(l-naphthyl)propionyl)-N^im-DNP-histidyl)-1-amino-2-cyclohexylethyl] 2-carbomethoxy-3-cyclohgxylgropylphosphinate	58%
Methyl [N-(N-(N-BOC-phenylalanyl)-N^im-DNP-histidyl)-I-amino-2-cyclohexylethyl]-2-carbomethoxy-4-methylpentylphosphinate	61%
Methyl [N-(N-(N-CBZ-2-amino-3-(1-naphthyl)propionyl)-N^im-DNP-histidyl)-1-amino-2-cyclohexylethyl]2-carbomethox^y-3-cyclohexylpropylphosphinate	62%
Methyl [N-(N-(N-CBZ-2-amino-4-phenylbutyryl)-N^im-DNP-histidyl)-1-amino-2-cyclo-heaylethyl] 2-carbo- methoxy-4-methylpentylphosphinate	38%
Methyl [N-(N-(N-CBZ-phenylalanyl)-N^im-DNP-histidyl)-1-amino-2-cyclohezylethyl]-2-carbomethozy-4-methylpentylphosphinate	55%

same assay, conditions: late stage modification step

Substance	step yield
[N-(N-2-Amino-3-(l-naphthyl)propionyl-histidyl)-l-amino-2-cyclohexylethyl] 2-carboxy-4-methylpentyl- phosphinic acid	15%
